No constants are given. Whether binding was seen depends on the method and setting. Some binding calls cover weakened binding; strength is not graded here.

This assay has as its target T1, POT1a (Arabidopsis thaliana) (UniProt Q56Y52).
T1 sequence: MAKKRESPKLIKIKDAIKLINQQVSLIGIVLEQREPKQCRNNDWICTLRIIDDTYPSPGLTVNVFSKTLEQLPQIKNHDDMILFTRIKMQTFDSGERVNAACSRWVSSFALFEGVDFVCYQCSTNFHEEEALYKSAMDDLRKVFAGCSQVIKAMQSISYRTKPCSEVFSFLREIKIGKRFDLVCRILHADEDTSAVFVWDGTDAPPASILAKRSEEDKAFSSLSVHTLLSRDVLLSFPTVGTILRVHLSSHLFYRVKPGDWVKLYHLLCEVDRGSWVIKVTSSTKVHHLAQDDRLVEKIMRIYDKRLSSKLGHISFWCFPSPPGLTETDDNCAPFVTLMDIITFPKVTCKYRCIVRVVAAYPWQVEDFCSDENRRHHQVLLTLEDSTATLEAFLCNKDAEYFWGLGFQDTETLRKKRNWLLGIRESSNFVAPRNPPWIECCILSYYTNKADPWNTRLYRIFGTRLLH
In words: two-hybrid; Matchmaker GAL4 system, pGADT7-DEST/pGBKT7-DEST, S. cerevisiae PJ69-4α, 30 °C; growth on -LWH plates (with increasing 3-aminotriazol) and -LWHAde plates.

B1: RAD23-3 (protein, UniProt Q84L31 1-419)
chain: MKIFVKTLKGTHFEIEVKPEDSVVDVKKNIESVQGADVYPAAKQMLIHQGKVLKDETTIEENKVAENSFIVIMMNKSKPASAAASSASAGTSQAKSIPPSTSQPSISPQTPASVSAPVAPAPTRPPPPAPTPTPAPVAATETVTTPIPEPVPATISSSTPAPDSAPVGSQGDVYGQAASNLAAGSNLESTIQQILDMGGGTWDRETVVLALRAAFNNPERAVEYLYTGIPEQAEVPPVARPPASAGQPANPPAQTQQPAAAPASGPNANPLDLFPQGLPNVGGNPGAGTLDFLRNSQQFQALRAMVQANPQVLQPMLQELGKQNPNLMRLIQDHQADFLRLINEPVEGGGESGNLLGQMAAGMPQPQAIQVTHEEREAIERLEAMGFERALVLEVFFACNKNEELAANYLLDHMHEFEE
As to B1, the binding result is “binds”.

B2: WDR26 (WD-40 REPEAT 26) (protein, UniProt Q9FNN2 1-589)
chain: MGVVEDTEPPLKRAKRLADEPNGFSANSSVRGSSVNSNSLGDLMARPLPSQGDDETIGSKGVIRKSEFVRIITRALYSLGYDKTGAMLEEESGISLHNSTIKLFLQQVKDGKWDQSVKTLHRIGFPDEKAVKAASFLLLEQKFLEFLKVEKIADALRTLRNEMAPLRINTKRVHELASSLISPSSFISHTTSTPGKESVNSRSKVLEELQTLLPASVIIPEKRLECLVENSLHIQRDSCVFHNTLDSDLSLYSDHQCGKHQIPSQTAQILESHTDEVWFLQFSHNGKYLASSSKDQTAIIWEISADGHISLKHTLVGHHKPVIAILWSPDDRQVLTCGAEEVIRRWDVDSGDCVHMYEKGGISPISCGWYPDGQGIIAGMTDRSICMWDLDGREKECWKGQRTQKVSDIAMTDDGKWLVSVCKDSVISLFDREATVERLIEEEDMITSFSLSNDNKYILVNLLNQEIRLWNIEGDPKIVSRYKGHKRSRFIIRSCFGGYKQAFIASGSEDSQVYIWHRSTGKLIVELPGHAGAVNCVSWSPTNLHMLASASDDGTIRIWGLDRINQQNQKKKLVQGSSSNGVIHRCNGN
For the molecule B2, the binding entry is given as “binds”.

B3: COG2 (protein, UniProt F4JRR1 1-756)
chain: MSDLVATSPSPSSAPRSATDFFSDPYDSHPLWFKPSLFLSPNFDSESYISELRTFVPFDTLRSELRSHLASLNRELVDLINRDYADFVNLSTKLVDIDAAVVRMRAPLLELREKITGFRGSVEAALFALRNGLQQRSDAAAAREVLELLLDTFHVVSKVEKLIKVLPSTPSDWQNEDANSMGRSSMNDENSTQQDGTTMRETQSMLLERIASEMNRLKFYMAHAQNLPFIENMEKRIQSASVLLDASLGHCFIDGLNNSDTSVLYNCLRAYAAIDNTNAAEEIFRTTIVAPFIQKIITHETTTNAAGTSEDELENDYKQIKHFIAKDCKMLLEISSTDKSGLHVFDFLANSILKEVLWAIQKVKPGAFSPGRPTEFLKNYKASLDFLAYLEGYCPSRSAVTKFRAEAICVEFMKQWNVGVYFSLRFQEIAGALDSALTSPSLVFIQDSDKESSLNLILRQSDTLLECLRSCWKEDVLVFSAADKFLRLTLQLLSRYSFWVSSALNNRKSNASPSPGCEWAVSATAEDFVYVIHDVNCLVSEVCGDYLGHISQYLSSSSTEVLDVVRISIEQGGVSLEKVLPLLTKTIIDVIVDKSVEDLRQLRGITATFRMTNKPLPVRHSPYVVGLLRPVKAFLEGDKARNYLTQKTKEELLHGSVSEITRRYYELAADVVSVARKTQSSLQKLRQNAQRRGGAASGVSDQNVSETDKMCMQLFLDIQEYGRNVSALGLKPADIPEYCSFWQCVAPADRQNSISV
As to B3, the binding result was “binds”.

B4: Whirly1 (WHY1) (protein, UniProt Q9M9S3 1-263)
chain: MSQLLSTPLMAVNSNPRFLSSSSVLVTGGFAVKRHGFALKPTTKTVKLFSVKSRQTDYFEKQRFGDSSSSPSPAEGLPARFYVGHSIYKGKAALTVDPRAPEFVALDSGAFKLSKDGFLLLQFAPSAGVRQYDWSKKQVFSLSVTEIGTLVSLGPRESCEFFHDPFKGKSDEGKVRKVLKVEPLPDGSGHFFNLSVQNKLVNVDESIYIPITRAEFAVLISAFNFVLPYLIGWHAFANSIKPEETSRVNNASPNYGGDYEWNR
In the case of B4, the binding result is given as “binds”.

B5: p23-like chaperone AT4G02450 (protein, UniProt Q8L7U4 1-241)
chain: MSRHPEVKWAETTEKIFLTVVLADTKDTKVNLDPEGVFDFSAKVGPENHVYELKLELADKVNVEESKINIGERSIFCIIEKAEPERWNKLLRVKKPPHYVKVDWDKWVDEDDEGSAGAADMDMAGMEGMGGMGGMGGMGGMGGMGGMGGMGGMEGMDFSKLMGGMGGMGGMGGLEGLGGMGGMGGMGGMGGMGGMEEFEDSDDEEETAKSGDKKDDAVKEEGLATEKAPAAEETTSVKEDK
Regarding B5, the binding entry is “no binding”.

B6: RAD23-4 (protein, UniProt Q84L30 1-378)
chain: MKIFVKTLSGSNFEIEVKPADKVSDVKTAIETVKGAEYPAAKQMLIHQGKVLKDETTLEENNVVENSFIVIMLSKTKASPSGASTASAPAPSATQPQTVATPQVSAPTASVPVPTSGTATAAAPATAASVQTDVYGQAASNLVAGTTLESTVQQILDMGGGSWDRDTVVRALRAAFNNPERAVEYLYSGIPAQAEIPPVAQAPATGEQAANPLAQPQQAAAPAAATGGPNANPLNLFPQGMPAADAGAGAGNLDFLRNSQQFQALRAMVQANPQILQPMLQELGKQNPQLVRLIQEHQADFLRLINEPVEGEENVMEQLEAAMPQAVTVTPEEREAIERLEGMGFDRAMVLEVFFACNKNEELAANYLLDHMHEFEDQ
As to B6, the binding entry was “binds”.

B7: COG8 (protein, UniProt Q84K25 1-569)
chain: MAMEVGEMSQPEATASLLSLASATQQPYVSELLSFTLDRLHKEPELLRVDAERIQRQMQEVAVGNYRAFITAADALLAIRQEVSSIDKHLESLIGEVPKLTSGCTEFIDSAENILEKRKMNQALLANHSTLLDLLEIPQLMDTCVRNGNFDEALDLEAFVSKLATLHPKLPVIQALAAEVRQTTQSLLSQLLQKLRSNIQLPECLRIIGYLRRIGVFGEYEMRLQFLRCREAWLTGILEDLDQKNAYEYLKGMINCHRMHLFDVVNQYRAIFSDDTSGSEENYDGGLLFSWAMHQITSHLKTLKIMLPKITEGGSLSNILDQCMYCAMGLGGVGLDFRGLLPPLFEEAVLNLFSKNMSTAVENFQLVLDSHRWVPLPSVGFPSSGINEDSKDDVTPPSYLMEHPPLAVFINGVSSALNELRPCAPLSLKNVVAHELIKGLQAVSDSLLRYNTTRMLRLSESNLFLSLCRAFVEVVFPHCATCFGRCYPGGATIVMDAKSAYEGLGRILAASSSQEPSNKSPKVISTDTKDASENGVASQPEEKQAENPNAKEEDNSPIPLQTPEITPES
As to B7, the binding entry was “binds”.

B8: MCM7, full length (protein, UniProt P43299 1-716)
chain: MKDHDFDGDKGLAKGFLENFADANGRSKYMEILQEVSNRKIRAIQVDLDDLFNYKDESEEFLGRLTENTRRYVSIFSAAVDELLPEPTEAFPDDDHDILMTQRADDGTDNPDVSDPHQQIPSEIKRYYEVYFKAPSKGRPSTIREVKASHIGQLVRISGIVTRCSDVKPLMAVAVYTCEDCGHEIYQEVTSRVFMPLFKCPSSRCRLNSKAGNPILQLRASKFLKFQEAKMQELAEHVPKGHIPRSMTVHLRGELTRKVSPGDVVEFSGIFLPIPYTGFKALRAGLVADTYLEATSVTHFKKKYEEYEFQKDEEEQIARLAEDGDIYNKLSRSLAPEIYGHEDIKKALLLLLVGAPHRQLKDGMKIRGDVHICLMGDPGVAKSQLLKHIINVAPRGVYTTGKGSSGVGLTAAVMRDQVTNEMVLEGGALVLADMGICAIDEFDKMDESDRTAIHEVMEQQTVSIAKAGITTSLNARTAVLAAANPAWGRYDLRRTPAENINLPPALLSRFDLLWLILDRADMDSDLELAKHVLHVHQTEESPALGFEPLEPNILRAYISAARRLSPYVPAELEEYIATAYSSIRQEEAKSNTPHSYTTVRTLLSILRISAALARLRFSESVAQSDVDEALRLMQMSKISLYADDRQKAGLDAISDTYSIIRDEAARSKKTHVSYANALNWISRKGYSEAQLKECLEEYAALNVWQIDPHTFDIRFI
In the case of B8, the binding entry is “binds”.

B9: COG5 (protein, UniProt Q9C9V9 1-832)
chain: MALPPSSPSPSSPSLQRLSTFKNPPPSSLSSGAPPPQTPSSSSSSPLDSFATDPILSPFLSSSFSSASFSSAALASGSPASTAERLHQAIRLLDSQLRNDVISRHPELLAQLSSLSHADVSLSSLRSSVSSLQSSIRRVRSDLSEPIKSIRSKSVQLSNLHTATELLSHSVRTLRLSKKLRDLADFPDPDKIDLTKAAQFHFEILTMCKEYDLFGIDVIDEEIKFVTEIGEKLRSEAMKVLERGMEGLNQAEVGTGLQVFYNLGELKSTVDQLVNKYKGMAVKSVSVAMDMKAITSGSGGGFGPGGIRSSGSPHIGGGAKVREALWQRMASCMEQLCSLVVAVWHLQRVLSKKRDPFTHVLLLDEVIKEGDSMLTDRVWDALVKAFTSQMKSAYTASSFVKEIFTMGYPKLVSMIENLLERISRDTDVKGVLPAINLERKEQMVACIAIFQTAFLSLCFGRLSDLVNSIFPMSSRGSLPSKEQISQVLSHIQDEIEAVHPDARLTLLVLREIGKALSNLAQRAECQISTGPETRQISGPATSTQIRNFTLCQHLQGIHTHISSMVADLPSIATDVLSPYLAAIYDAACEPVTPLFKAMRDKLESCILQIHDQNFGADDADMDNNASSYMEELQRSILHFRKEFLSRLLPSAANANTAGTESICTRLTRQMASRVLIFYIRHASLVRPLSEWGKLRMAKDMAELELAVGQNLFPVEQLGAPYRALRAFRPLVFLETSQMGSSPLINDLPPSIVLHHLYTRGPDELESPMQKNRLSPKQYSLWLDNQREDQIWKGIKATLDDYAVKIRSRGDKEFSPVYPLMLQIGSSLTQENL
As to B9, the binding entry is “binds”.

B10: RAD23-1 (protein, UniProt Q84L33 1-371)
chain: MKLTVKTLKGSHFEIRVLPSDTIMAVKKNIEDSQGKDNYPCGQQLLIHNGKVLKDETSLVENKVTEEGFLVVMLSKSKSGGSAGQASVQTSSVSQPVSATTSSTKPAAPSTTQSSPVPASPIPAQEQPAAQTDTYGQAASTLVSGSSLEQMVQQIMEMGGGSWDKETVTRALRAAYNNPERAVDYLYSGIPQTAEVAVPVPEAQIAGSGAAPVAPASGGPNSSPLDLFPQETVAAAGSGDLGTLEFLRNNDQFQQLRTMVHSNPQILQPMLQELGKQNPQLLRLIQENQAEFLQLVNEPYEGSDGEGDMFDQPEQEMPHAINVTPAEQEAIQRLEAMGFDRALVIEAFLACDRNEELAANYLLENSGDFED
With B10, the binding entry is reported as “no binding”.

B11: high-mobility-group B4 (HMGB4) protein (protein, UniProt Q42344 1-138)
chain: MKGGESKAEATSTDQRLKTRGRKAGKKTKKDPNQPKRPPSAFFVFLEDFRKEFNLANPNNKSVATVGKAAGARWKAMTDEDKAPYVAKAESRKTEYIKNVQQYNLKLASGTNREEDDSDKSKSEVDEAVSEEEAEDDD
In the case of B11, the binding entry is on record as “no binding”.

For the origin of these results see paper PMC8745574.
